Test results published in the supplement of paper PMC7411640.
Where a name gives a salt, the structure may show the parent alone. Some of the results follow. Repeats in this data set agree poorly, so a single value says little.

Tested on: MDA-MB-468
Assay: phospho-S6 immunofluorescence (DAPI-normalised), per-plate z-score; higher = higher phospho-S6 signal (less pathway suppression)
Details: 24 h
Procedure: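 GPCR-targeted compound library (MedChemExpress HY-L006) tested on MDA-MB-468 PTEN-null TNBC cells in 384-well plates at 0.1, 1 or 10 uM, combined with vehicle, GDC0941 450 nM or lapatinib 1 uM, for 24 h. Phospho-S6 (S240/244) immunofluorescence normalised to DAPI and expressed as a per-plate z-score; values are the mean of biological triplicates.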

[1] = compound 0.1 µM, co-treatment: GDC0941 450 nM
[2] = compound 0.1 µM, co-treatment: lapatinib 1 uM
[3] = compound 0.1 µM, co-treatment: vehicle
[4] = compound 1 µM, co-treatment: GDC0941 450 nM
[5] = compound 1 µM, co-treatment: lapatinib 1 uM
[6] = compound 1 µM, co-treatment: vehicle
[7] = compound 10 µM, co-treatment: GDC0941 450 nM
[8] = compound 10 µM, co-treatment: lapatinib 1 uM
[9] = compound 10 µM, co-treatment: vehicle

| SMILES | phospho-S6 immunofluorescence (z-score) [1] | phospho-S6 immunofluorescence (z-score) [2] | phospho-S6 immunofluorescence (z-score) [3] | phospho-S6 immunofluorescence (z-score) [4] | phospho-S6 immunofluorescence (z-score) [5] | phospho-S6 immunofluorescence (z-score) [6] | phospho-S6 immunofluorescence (z-score) [7] | phospho-S6 immunofluorescence (z-score) [8] | phospho-S6 immunofluorescence (z-score) [9] |
| --- | --- | --- | --- | --- | --- | --- | --- | --- | --- |
| c1cc(CN2CCCNCCNCCCNCC2)ccc1CN1CCCNCCNCCCNCC1 [Plerixafor (octahydrochloride)] | -1.05 | -0.81 | -1.05 | -0.58 | -0.2 | -0.97 | -0.24 | 0.37 | -0.74 |
| CCc1nc2c(C)nc(C)cc2n1-c1ccc(CCNC(=O)NS(=O)(=O)c2ccc(C)cc2)cc1 [Grapiprant] | 0.21 | 1.03 | 0.01 | 0.01 | 0.5 | -0.35 | -0.05 | -0.15 | -0.51 |
| COCc1nnc(N2CC(Oc3ccc(F)cc3Cl)C2)n1-c1ccc(OC)nc1 | -0.18 | 0.35 | -0.31 | -0.37 | 1.67 | -0.5 | – | – | – |
| Cc1c(-c2ccccc2)oc2c(C(=O)OCCN3CCCCC3)cccc2c1=O [Flavoxate (hydrochloride)] | 0.88 | 0.06 | 0.28 | 0.74 | 0.21 | -0.21 | 0.25 | 0.29 | 0.07 |
| O=C(/C=C/c1ccc(Cl)cc1)N1CCC2(CC1)CN(Cc1ccc(Cl)c(Cl)c1)C(=O)O2 | -1.65 | -1.75 | -1.16 | -0.28 | -0.71 | -1.55 | – | – | – |
